Results reported in PubChem BioAssay AID540256 (National Center for Advancing Translational Sciences (NCATS), 2011).
Out of some 300,000 compounds screened, about 3,700 (1.2%) were called active. This list was built around the results that the source calls inconclusive (neither active nor inactive); the mix of calls is not that of the screen. Calls follow the shape of the full dose curve; tested in HEK293 cells. Where the call is inconclusive, the potency comes from a doubtful curve fit.

assay: qHTS for Inhibitors of binding or entry into cells for Lassa Virus; conditions: Lassa virus pseudotype entry inhibition, cell reporter; activity change, negative = inhibition: at 37.9 µM (top of the series) unless noted; also: nearly all actives have a fitted effect of over 50% in size
% is scaled to controls: 0 for no effect and ±100 for the full control effect; potency is read from the fitted curve at half-maximal effect.

Row | SMILES | activity change, negative = inhibition | Potency
1 | Cc1ccn2cc(CCNS(=O)(=O)c3ccc4ccccc4c3)nc2c1 | inactive: -0.108% | –
2 | COc1ccccc1C(=O)N/N=C(\C)CC(=O)Nc1ccc2c(c1)OCCO2 | inactive: -6.97% | –
3 | Cc1ccc(C)c(N2CCN(C(c3ccncc3)c3nnnn3Cc3ccccc3)CC2)c1 (stereo not drawn) | – | inconclusive: 14.6 µM [inhibitor, partial curve]
4 | COc1cccc(C(c2sc3nc(-c4ccco4)nn3c2O)N2CCC(C)CC2)c1 (stereo not drawn) | inactive: 12.3% [at 46.1 µM] | –
5 | C/C(=N\NC(=O)c1ccc(C)cc1C)c1ccc(-n2ccnc2)cc1 | – | inconclusive: 1 µM [inhibitor, partial curve, poor fit]
6 | CC(=O)COc1ccc2c3c(c(=O)oc2c1C)CCCCC3 | – | inconclusive: 0.184 µM [activator, full curve, poor fit]
7 | CCC1CN(C(=O)NCc2ccc(F)cc2)c2cc(C)ccc2O1 (stereo not drawn) | – | inconclusive: 3.98 µM [inhibitor, full curve]
8 | CCOP(=O)(OCC)C(NC(=O)Nc1ccc(Cl)c(Cl)c1)c1ccccc1 (stereo not drawn) | – | inconclusive: 29.1 µM [inhibitor, single point]
9 | O=C(NCc1ccc(Cl)cc1)c1cc(=O)nc2sc(-c3ccccc3)nn12 | – | inconclusive: 3.26 µM [inhibitor, full curve]
10 | COC(=O)c1c(NC(=O)CCl)sc(C(=O)N2CCOCC2)c1C | – | inconclusive: 10 µM [inhibitor, partial curve, poor fit]
11 | CC(C)(C)c1cc(Cl)c(O)c(NC(=S)NC(=O)c2cccnc2)c1 | inactive: -19.8% | –
12 | O=C(CSc1nnc(-c2cccs2)n1Cc1ccccc1)NCc1ccc2c(c1)OCO2 | inactive: 23.2% | –
13 | O=C(COc1ccccc1[N+](=O)[O-])Nc1ccc(NC(=O)c2cc3ccccc3o2)cc1 | – | inconclusive: 4.61 µM [inhibitor, full curve]
14 | COc1ccc(-n2ncc3c(NC(C)C)ncnc32)cc1 | – | inconclusive: 10 µM [inhibitor, single point]
15 | CC(C)(C)OC(=O)N1CCC(c2c(C(=O)N3CCN(c4cccc(Cl)c4)CC3)cnn2-c2cccc(Cl)c2)CC1 | – | inconclusive: 1.78 µM [inhibitor, partial curve, poor fit]
16 | COc1ccc(S(=O)(=O)Nc2cccc(-c3ccc(N4CCCCCC4)nn3)c2)cc1OC | inactive: -17% [at 46.1 µM] | –
17 | O=C(C(=O)c1cc(Br)ccc1O)c1cc(Br)ccc1O | – | inconclusive: 31.6 µM [inhibitor, single point]
18 | CCOc1ccc(NC(=S)NN(C)C(=S)Nc2ccc(OCC)cc2)cc1 | – | inconclusive: 10 µM [inhibitor, partial curve, poor fit]
19 | Fc1ccccc1CCNCc1cccc(Cl)c1Cl | inactive: 15.2% | –
20 | c1cc2ccc3ccc(-n4cnnn4)c4ccc(c1)c2c34 | inactive: -20.6% | –
21 | Cc1[nH]c(=O)c(C(=O)c2cc(Cl)ccc2O)cc1C(=O)O | inactive: 0.0102% [at 46.1 µM] | –
22 | Cc1ccc(N2C(=O)N(CC(=O)Nc3cc(Cl)ccc3C)C(=O)C2C)cc1 (stereo not drawn) | – | inconclusive: 1.12 µM [inhibitor, single point]

Taken from above:
In Potency, Cc1ccc(C)c(N2CCN(C(c3ccncc3)c3nnnn3Cc3ccccc3)CC2)c1 (stereo not drawn) is listed with inconclusive: 14.6 µM [inhibitor, partial curve]
In Potency, COc1ccc(-n2ncc3c(NC(C)C)ncnc32)cc1 is listed with inconclusive: 10 µM [inhibitor, single point]

Continuation.

Row | SMILES | activity change, negative = inhibition | Potency
23 | N/C(=N\OC(=O)c1cccc([N+](=O)[O-])c1)c1cccnc1 | – | inconclusive: 1.26 µM [activator, single point]
24 | CC(C)(C)c1ccc(CCC2OCC(CN3CCOCC3)O2)cc1 (stereo not drawn) | – | inconclusive: 39.8 µM [inhibitor, partial curve, poor fit]
25 | COc1cccc(Cn2nc3c4cc(F)ccc4n(Cc4ccc(F)cc4)cc-3c2=O)c1 | inactive: 25.1% | –
26 | CC(C)(C)NC(=O)C(c1ccc(O)cc1)N(C(=O)CCC(=O)Nc1nccs1)c1ccc(F)cc1 (stereo not drawn) | – | inconclusive: 3.55 µM [inhibitor, partial curve, poor fit]
27 | Cc1ccc(CCNC(=O)C2CC(=O)N(CCc3ccc(C)cc3)C2)cc1 (stereo not drawn) | – | inconclusive: 35.5 µM [inhibitor, single point]
28 | CC1=CC(C)(C)Nc2ccc(OC(=O)C(C)N3C(=O)c4ccccc4C3=O)cc21 (stereo not drawn) | – | inconclusive: 29.1 µM [inhibitor, single point]
29 | CCN(CC)S(=O)(=O)c1cccc(NC(=O)c2cc(-c3cccs3)nn2-c2ccccc2)c1 | – | inconclusive: 14.6 µM [inhibitor, partial curve, poor fit]
30 | Cc1nn(-c2ccccc2)c(C)c1C(=O)OCC(=O)NC12CC3CC(CC(C3)C1)C2 | – | inconclusive: 18.3 µM [inhibitor, partial curve, poor fit]
31 | COC(=O)c1sccc1S(=O)(=O)N1CCN(c2cccc(C)c2)C(C)C1 (stereo not drawn) | – | inconclusive: 7.94 µM [inhibitor, single point]
32 | Cc1ccc(NC(=O)c2cccc(C(=O)OC(C)C)n2)c(Br)c1 | inactive: 2.64% | –
33 | COc1cc(C(C)=O)ccc1OCC(=O)Nc1ccccc1N1CCCCC1 | – | inconclusive: 20 µM [inhibitor, single point]
34 | Cc1cc(C(=O)Nc2ccc(N3CCOCC3)c3nonc23)ccc1[N+](=O)[O-] | inactive: 0.287% [at 46.1 µM] | –
35 | COc1ccc(OC)c(C2CC(=O)C3=C(C2)NC(=O)CC3c2ccc(O)c(OC)c2)c1 (stereo not drawn) | inactive: -11% | –
36 | CC(C)n1cc(/C=N/NC(=O)COc2cccc3cccnc23)c2ccccc21 | – | inconclusive: 35.5 µM [inhibitor, single point]
37 | CN1C(=O)c2ccccc2Sc2ccc(NC(=O)Cc3ccc(Cl)cc3)cc21 | – | inconclusive: 35.5 µM [inhibitor, partial curve, poor fit]
38 | O=C(c1cn(Cc2ccccc2F)c2ncccc12)C(F)(F)F | – | inconclusive: 0.447 µM [inhibitor, partial curve, poor fit]
39 | COc1ccc(NC(=O)CSc2ccc(-c3cccs3)nn2)c(OC)c1 | – | inconclusive: 6.31 µM [inhibitor, single point]
40 | Cc1cccc(N(C)S(=O)(=O)c2nnc(NC(=O)C(C)Oc3ccccc3)s2)c1 (stereo not drawn) | – | inconclusive: 3.55 µM [activator, partial curve, poor fit]
41 | Cc1sc(C(=O)Nc2ccc3ccccc3c2)cc1CC(=O)O | inactive: 14.1% | –
42 | C=CCNC1=C(Cl)C(=O)c2ccccc2C1=O | – | inconclusive: 35.5 µM [inhibitor, single point]
43 | CSc1nc(-c2ccco2)nn1C(=O)c1ccccc1 | inactive: 0.172% | –
